# The supplement of paper PMC6411743
# Sequences of proteins named here, by UniProt entry; tags and fusion partners are left off. A change or cut given only in a name is not applied to a line headed by its entry.
# UniProt I3L1I5, whole entry, looked up: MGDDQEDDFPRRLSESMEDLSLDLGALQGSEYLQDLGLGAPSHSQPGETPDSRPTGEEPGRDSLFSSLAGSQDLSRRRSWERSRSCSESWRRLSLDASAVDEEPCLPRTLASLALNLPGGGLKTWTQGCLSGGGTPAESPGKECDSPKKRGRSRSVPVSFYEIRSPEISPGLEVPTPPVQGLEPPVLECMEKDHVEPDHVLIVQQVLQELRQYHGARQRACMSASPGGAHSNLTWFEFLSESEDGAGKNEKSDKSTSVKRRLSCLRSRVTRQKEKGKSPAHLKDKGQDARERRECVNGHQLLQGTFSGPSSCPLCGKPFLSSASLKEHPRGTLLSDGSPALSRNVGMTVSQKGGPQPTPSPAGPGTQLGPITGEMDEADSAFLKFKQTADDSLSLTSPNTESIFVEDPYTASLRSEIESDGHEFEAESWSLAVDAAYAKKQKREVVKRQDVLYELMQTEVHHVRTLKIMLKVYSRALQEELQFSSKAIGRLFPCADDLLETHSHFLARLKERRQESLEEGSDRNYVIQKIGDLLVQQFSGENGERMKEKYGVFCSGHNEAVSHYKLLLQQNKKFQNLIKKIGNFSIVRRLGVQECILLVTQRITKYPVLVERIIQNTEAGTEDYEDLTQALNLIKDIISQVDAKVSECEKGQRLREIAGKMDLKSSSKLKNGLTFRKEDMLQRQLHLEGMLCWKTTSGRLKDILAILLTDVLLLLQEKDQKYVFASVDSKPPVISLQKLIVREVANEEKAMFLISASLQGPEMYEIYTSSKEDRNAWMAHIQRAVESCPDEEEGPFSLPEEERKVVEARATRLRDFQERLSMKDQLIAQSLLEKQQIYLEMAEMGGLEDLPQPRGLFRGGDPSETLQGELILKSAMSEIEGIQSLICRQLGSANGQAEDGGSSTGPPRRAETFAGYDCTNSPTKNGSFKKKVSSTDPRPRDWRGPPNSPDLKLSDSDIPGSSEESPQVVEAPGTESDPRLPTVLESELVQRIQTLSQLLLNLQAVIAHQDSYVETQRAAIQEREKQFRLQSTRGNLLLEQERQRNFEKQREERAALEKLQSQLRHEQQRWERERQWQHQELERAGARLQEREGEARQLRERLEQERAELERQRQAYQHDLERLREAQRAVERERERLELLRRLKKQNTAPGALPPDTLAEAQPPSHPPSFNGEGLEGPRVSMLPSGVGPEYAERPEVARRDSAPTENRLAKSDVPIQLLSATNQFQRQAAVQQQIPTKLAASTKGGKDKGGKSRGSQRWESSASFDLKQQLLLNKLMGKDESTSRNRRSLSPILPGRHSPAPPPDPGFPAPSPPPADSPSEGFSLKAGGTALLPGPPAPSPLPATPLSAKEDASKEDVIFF
# UniProt Q96BW1: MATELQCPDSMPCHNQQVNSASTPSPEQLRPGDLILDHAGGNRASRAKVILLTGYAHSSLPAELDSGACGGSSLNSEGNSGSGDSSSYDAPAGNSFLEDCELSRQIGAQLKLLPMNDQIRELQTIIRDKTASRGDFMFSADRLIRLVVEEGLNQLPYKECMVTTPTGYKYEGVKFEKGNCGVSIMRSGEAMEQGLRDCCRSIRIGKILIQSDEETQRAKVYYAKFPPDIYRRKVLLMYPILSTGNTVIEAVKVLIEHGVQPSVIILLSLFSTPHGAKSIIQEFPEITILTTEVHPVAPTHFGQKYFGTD
# UniProt P09234, whole entry: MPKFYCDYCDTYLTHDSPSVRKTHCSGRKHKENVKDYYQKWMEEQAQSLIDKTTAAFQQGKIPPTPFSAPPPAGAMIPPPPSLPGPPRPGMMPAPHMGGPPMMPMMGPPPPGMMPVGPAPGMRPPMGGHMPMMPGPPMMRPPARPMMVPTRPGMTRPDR
# UniProt O95299, whole entry: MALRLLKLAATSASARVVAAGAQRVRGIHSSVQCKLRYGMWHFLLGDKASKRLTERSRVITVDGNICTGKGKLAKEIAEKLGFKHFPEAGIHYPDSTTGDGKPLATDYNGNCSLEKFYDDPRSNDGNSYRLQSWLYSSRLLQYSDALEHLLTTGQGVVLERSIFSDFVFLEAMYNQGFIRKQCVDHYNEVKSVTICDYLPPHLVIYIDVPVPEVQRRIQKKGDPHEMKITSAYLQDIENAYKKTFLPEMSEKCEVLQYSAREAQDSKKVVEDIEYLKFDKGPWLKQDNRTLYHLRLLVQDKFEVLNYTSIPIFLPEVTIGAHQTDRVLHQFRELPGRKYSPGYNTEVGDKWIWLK
# UniProt Q9Y4X4: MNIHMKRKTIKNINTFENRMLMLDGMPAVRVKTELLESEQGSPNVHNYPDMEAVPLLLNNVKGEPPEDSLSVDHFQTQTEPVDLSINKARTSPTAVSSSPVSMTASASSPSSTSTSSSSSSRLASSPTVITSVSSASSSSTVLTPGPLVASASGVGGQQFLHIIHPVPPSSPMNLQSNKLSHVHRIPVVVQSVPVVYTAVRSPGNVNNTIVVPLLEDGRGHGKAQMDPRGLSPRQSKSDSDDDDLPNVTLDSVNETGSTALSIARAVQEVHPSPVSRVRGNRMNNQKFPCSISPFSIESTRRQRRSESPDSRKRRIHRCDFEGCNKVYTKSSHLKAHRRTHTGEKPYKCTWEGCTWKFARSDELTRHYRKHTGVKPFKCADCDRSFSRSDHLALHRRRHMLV
# UniProt Q96T83: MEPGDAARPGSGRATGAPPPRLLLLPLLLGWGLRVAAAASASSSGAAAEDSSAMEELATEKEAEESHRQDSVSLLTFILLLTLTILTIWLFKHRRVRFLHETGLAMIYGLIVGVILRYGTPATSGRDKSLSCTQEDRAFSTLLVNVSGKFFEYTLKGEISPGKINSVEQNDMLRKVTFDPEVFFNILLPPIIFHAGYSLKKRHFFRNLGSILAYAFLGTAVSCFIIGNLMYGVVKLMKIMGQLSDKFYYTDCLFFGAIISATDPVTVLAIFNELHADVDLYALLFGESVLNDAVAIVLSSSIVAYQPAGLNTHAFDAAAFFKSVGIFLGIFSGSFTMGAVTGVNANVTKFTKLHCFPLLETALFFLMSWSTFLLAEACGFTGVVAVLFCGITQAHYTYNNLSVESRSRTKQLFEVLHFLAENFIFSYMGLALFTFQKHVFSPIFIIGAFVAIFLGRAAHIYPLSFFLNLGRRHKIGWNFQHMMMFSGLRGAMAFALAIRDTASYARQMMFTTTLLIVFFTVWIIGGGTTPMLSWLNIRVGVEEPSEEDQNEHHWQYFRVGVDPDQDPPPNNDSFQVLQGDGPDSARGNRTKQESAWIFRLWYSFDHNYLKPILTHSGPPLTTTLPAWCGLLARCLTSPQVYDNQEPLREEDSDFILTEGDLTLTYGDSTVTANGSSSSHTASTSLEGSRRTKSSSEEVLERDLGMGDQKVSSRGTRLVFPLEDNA
# UniProt Q6VEQ5: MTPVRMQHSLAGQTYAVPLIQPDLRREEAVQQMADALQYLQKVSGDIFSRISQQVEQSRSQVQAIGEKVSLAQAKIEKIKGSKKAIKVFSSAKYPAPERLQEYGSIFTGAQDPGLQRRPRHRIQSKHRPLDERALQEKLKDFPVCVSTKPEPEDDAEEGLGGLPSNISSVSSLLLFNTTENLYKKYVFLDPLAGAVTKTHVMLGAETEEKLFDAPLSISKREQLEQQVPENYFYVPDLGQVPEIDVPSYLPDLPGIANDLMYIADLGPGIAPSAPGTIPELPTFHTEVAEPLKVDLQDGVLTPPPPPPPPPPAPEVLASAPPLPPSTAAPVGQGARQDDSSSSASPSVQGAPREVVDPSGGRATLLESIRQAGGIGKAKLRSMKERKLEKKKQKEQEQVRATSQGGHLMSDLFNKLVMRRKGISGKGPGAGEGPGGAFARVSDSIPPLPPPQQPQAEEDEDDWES
# UniProt P13693: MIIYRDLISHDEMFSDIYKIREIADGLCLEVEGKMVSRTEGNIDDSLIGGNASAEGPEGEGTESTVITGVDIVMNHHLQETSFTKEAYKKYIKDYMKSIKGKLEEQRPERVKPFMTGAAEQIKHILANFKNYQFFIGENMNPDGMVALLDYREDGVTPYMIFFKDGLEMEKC
# UniProt Q9BWM7: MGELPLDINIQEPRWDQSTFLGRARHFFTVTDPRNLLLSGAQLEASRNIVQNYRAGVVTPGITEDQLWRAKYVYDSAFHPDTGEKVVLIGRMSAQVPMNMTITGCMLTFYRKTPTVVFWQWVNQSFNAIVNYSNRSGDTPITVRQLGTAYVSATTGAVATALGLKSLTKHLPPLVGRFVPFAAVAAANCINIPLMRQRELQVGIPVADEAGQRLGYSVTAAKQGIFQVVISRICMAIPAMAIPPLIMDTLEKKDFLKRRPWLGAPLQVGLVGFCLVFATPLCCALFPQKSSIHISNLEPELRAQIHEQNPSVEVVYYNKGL
# UniProt Q8IWT0: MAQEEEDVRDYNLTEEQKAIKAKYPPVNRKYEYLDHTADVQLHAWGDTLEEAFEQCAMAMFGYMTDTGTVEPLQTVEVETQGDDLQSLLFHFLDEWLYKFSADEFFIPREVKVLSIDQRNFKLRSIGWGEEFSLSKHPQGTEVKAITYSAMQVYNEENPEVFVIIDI
# UniProt Q9Y4K1: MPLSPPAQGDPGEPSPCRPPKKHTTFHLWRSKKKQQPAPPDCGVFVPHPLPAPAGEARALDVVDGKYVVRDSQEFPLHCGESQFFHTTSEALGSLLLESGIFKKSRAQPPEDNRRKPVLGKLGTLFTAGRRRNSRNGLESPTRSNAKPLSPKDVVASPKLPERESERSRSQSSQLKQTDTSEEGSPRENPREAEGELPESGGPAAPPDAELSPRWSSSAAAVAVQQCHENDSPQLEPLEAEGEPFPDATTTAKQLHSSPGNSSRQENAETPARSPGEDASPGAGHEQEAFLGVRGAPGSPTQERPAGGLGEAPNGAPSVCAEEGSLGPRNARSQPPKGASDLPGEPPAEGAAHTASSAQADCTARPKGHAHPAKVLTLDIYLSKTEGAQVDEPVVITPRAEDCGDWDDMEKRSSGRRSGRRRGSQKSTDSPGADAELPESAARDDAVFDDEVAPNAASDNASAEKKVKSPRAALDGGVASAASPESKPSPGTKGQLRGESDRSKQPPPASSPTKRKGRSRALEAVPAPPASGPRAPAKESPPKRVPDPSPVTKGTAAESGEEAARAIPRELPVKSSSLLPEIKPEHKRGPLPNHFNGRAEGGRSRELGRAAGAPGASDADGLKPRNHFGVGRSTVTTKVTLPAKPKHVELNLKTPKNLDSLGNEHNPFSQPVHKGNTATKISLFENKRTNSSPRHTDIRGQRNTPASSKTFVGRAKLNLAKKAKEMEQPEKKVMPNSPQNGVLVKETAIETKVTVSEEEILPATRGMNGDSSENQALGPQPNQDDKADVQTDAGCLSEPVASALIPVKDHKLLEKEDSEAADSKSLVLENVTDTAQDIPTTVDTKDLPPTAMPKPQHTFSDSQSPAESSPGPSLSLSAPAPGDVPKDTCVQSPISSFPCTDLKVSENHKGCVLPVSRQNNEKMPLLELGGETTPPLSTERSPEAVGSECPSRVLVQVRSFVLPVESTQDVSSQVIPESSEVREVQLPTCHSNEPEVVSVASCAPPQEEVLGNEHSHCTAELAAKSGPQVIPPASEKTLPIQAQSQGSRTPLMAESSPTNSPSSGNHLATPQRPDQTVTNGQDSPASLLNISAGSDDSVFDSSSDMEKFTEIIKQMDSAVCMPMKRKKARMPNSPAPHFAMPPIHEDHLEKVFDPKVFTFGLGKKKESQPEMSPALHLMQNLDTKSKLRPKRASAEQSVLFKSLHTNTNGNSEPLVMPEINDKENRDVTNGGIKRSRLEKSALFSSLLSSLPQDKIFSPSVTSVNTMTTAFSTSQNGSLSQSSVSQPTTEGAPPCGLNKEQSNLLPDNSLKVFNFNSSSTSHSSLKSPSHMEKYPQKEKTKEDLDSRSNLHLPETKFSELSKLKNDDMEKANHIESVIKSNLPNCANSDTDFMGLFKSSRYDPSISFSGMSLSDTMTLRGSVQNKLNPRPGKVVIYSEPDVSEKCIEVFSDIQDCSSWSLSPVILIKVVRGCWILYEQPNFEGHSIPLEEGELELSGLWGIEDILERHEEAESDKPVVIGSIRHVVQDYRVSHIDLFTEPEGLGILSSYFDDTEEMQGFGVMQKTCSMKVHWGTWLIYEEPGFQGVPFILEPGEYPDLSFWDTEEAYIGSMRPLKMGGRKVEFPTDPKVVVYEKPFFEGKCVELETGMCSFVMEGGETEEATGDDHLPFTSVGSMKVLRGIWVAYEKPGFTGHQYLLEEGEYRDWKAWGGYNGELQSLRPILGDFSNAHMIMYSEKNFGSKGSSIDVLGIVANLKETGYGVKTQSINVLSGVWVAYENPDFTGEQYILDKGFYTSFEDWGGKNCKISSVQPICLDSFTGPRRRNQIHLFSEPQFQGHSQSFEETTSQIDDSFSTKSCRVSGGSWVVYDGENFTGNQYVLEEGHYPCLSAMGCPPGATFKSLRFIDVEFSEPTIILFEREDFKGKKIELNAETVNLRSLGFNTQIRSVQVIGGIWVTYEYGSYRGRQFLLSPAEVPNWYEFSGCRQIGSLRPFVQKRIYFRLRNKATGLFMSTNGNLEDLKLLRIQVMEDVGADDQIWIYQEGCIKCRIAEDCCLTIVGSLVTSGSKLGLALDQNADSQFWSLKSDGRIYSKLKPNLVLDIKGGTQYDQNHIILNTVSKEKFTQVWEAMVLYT
# ± gives the standard deviation of the averaged measurements. Only a part is listed here, and it is no random draw.
# Compound: Nc1ncnc2c1ncn2[C@@H]1O[C@H](COP(=O)(O)OP(=O)(O)NP(=O)(O)O)[C@@H](O)[C@H]1O [adenylyl imidodiphosphate]
# Test: NP40-soluble protein abundance relative to vehicle (solubility fold change) (ratio); higher = more soluble protein in presence of AMP-PNP
# Method in brief: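 Eight concentrations, 0.1 to 10 mM, were tested on Jurkat crude lysate for 10 min at room temperature and then 3 min at 37 °C, in three independent experiments. The lysate was solubilised with 0.8% NP40 and benzonase, ultracentrifuged, and the supernatant TMT-labelled for LC-MS/MS. Each value is the fold change against the detergent-processed vehicle in its own replicate, from vsn-normalised intensities.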
target,measurement,setting,value
A0A0A6YYC8|I3L1I5 (UniProt I3L1I5),NP40-soluble protein abundance,concentration: 1mM,1.01 ± 0.027
same,NP40-soluble protein abundance,concentration: 2mM,1.02 ± 0.04
same,NP40-soluble protein abundance,concentration: 4mM,1.02 ± 0.012
same,NP40-soluble protein abundance,concentration: 6mM,1.01 ± 0.023
same,NP40-soluble protein abundance,concentration: 8mM,1 ± 0.02
same,NP40-soluble protein abundance,concentration: 10mM,1.009 ± 0.0072
A0A0A0MQY7|Q5VU97 (UniProt Q5VU97),NP40-soluble protein abundance,concentration: 1mM,0.9824 ± 0.0077
same,NP40-soluble protein abundance,concentration: 2mM,1 ± 0.013
same,NP40-soluble protein abundance,concentration: 4mM,0.981 ± 0.013
same,NP40-soluble protein abundance,concentration: 6mM,0.9848 ± 0.0053
same,NP40-soluble protein abundance,concentration: 8mM,0.9836 ± 0.0034
same,NP40-soluble protein abundance,concentration: 10mM,0.987 ± 0.017
A0A0C4DG40|Q8NF91 and related entries (UniProt Q8NF91),NP40-soluble protein abundance,concentration: 1mM,1.01 ± 0.014
same,NP40-soluble protein abundance,concentration: 2mM,1.02 ± 0.066
same,NP40-soluble protein abundance,concentration: 4mM,0.999 ± 0.053
same,NP40-soluble protein abundance,concentration: 6mM,0.984 ± 0.045
same,NP40-soluble protein abundance,concentration: 8mM,0.931 ± 0.027
same,NP40-soluble protein abundance,concentration: 10mM,0.963 ± 0.059
A0A0A0MRR5|Q96BW1 and related entries (UniProt Q96BW1),NP40-soluble protein abundance,concentration: 1mM,0.991 ± 0.022
same,NP40-soluble protein abundance,concentration: 2mM,0.9931 ± 0.0058
same,NP40-soluble protein abundance,concentration: 4mM,1.01 ± 0.022
same,NP40-soluble protein abundance,concentration: 6mM,0.9909 ± 0.0094
same,NP40-soluble protein abundance,concentration: 8mM,0.993 ± 0.024
same,NP40-soluble protein abundance,concentration: 10mM,0.996 ± 0.016
MEX3A (UniProt A1L020),NP40-soluble protein abundance,concentration: 1mM,1.03 ± 0.017
same,NP40-soluble protein abundance,concentration: 2mM,1.02 ± 0.015
same,NP40-soluble protein abundance,concentration: 4mM,1.01 ± 0.018
same,NP40-soluble protein abundance,concentration: 6mM,0.997 ± 0.026
same,NP40-soluble protein abundance,concentration: 8mM,0.988 ± 0.026
same,NP40-soluble protein abundance,concentration: 10mM,1 ± 0.044
A0A087X211|Q8TCG1 and related entries (UniProt Q8TCG1),NP40-soluble protein abundance,concentration: 1mM,1.03 ± 0.035
same,NP40-soluble protein abundance,concentration: 2mM,1.04 ± 0.029
same,NP40-soluble protein abundance,concentration: 4mM,0.97 ± 0.029
same,NP40-soluble protein abundance,concentration: 6mM,0.934 ± 0.042
same,NP40-soluble protein abundance,concentration: 8mM,0.9027 ± 0.0049
same,NP40-soluble protein abundance,concentration: 10mM,0.92 ± 0.017
A0A0A0MRR7|P09234 (UniProt P09234),NP40-soluble protein abundance,concentration: 1mM,0.967 ± 0.04
same,NP40-soluble protein abundance,concentration: 2mM,1.01 ± 0.011
same,NP40-soluble protein abundance,concentration: 4mM,0.966 ± 0.03
same,NP40-soluble protein abundance,concentration: 6mM,1.05 ± 0.058
same,NP40-soluble protein abundance,concentration: 8mM,1.03 ± 0.051
same,NP40-soluble protein abundance,concentration: 10mM,1.09 ± 0.066
A0A087WXC5|E7ESZ7 and related entries (UniProt O95299),NP40-soluble protein abundance,concentration: 1mM,1.01 ± 0.026
same,NP40-soluble protein abundance,concentration: 2mM,0.981 ± 0.054
same,NP40-soluble protein abundance,concentration: 4mM,0.951 ± 0.016
same,NP40-soluble protein abundance,concentration: 6mM,0.927 ± 0.057
same,NP40-soluble protein abundance,concentration: 8mM,0.923 ± 0.047
same,NP40-soluble protein abundance,concentration: 10mM,0.896 ± 0.043
A0A0A0MRU8|Q9Y4X4 (UniProt Q9Y4X4),NP40-soluble protein abundance,concentration: 1mM,1 ± 0.023
same,NP40-soluble protein abundance,concentration: 2mM,1.07 ± 0.027
same,NP40-soluble protein abundance,concentration: 4mM,1 ± 0.047
same,NP40-soluble protein abundance,concentration: 6mM,1.01 ± 0.014
same,NP40-soluble protein abundance,concentration: 8mM,1.02 ± 0.011
same,NP40-soluble protein abundance,concentration: 10mM,0.995 ± 0.017
A0A087WXD1|Q96T83 (UniProt Q96T83),NP40-soluble protein abundance,concentration: 1mM,0.971 ± 0.05
same,NP40-soluble protein abundance,concentration: 2mM,0.973 ± 0.015
same,NP40-soluble protein abundance,concentration: 4mM,0.958 ± 0.033
same,NP40-soluble protein abundance,concentration: 6mM,0.948 ± 0.038
same,NP40-soluble protein abundance,concentration: 8mM,0.935 ± 0.027
same,NP40-soluble protein abundance,concentration: 10mM,0.9324 ± 0.0081
A0A096LP75|C4AMC7 and related entries (UniProt Q6VEQ5+C4AMC7),NP40-soluble protein abundance,concentration: 1mM,0.982 ± 0.052
same,NP40-soluble protein abundance,concentration: 2mM,1.12 ± 0.15
same,NP40-soluble protein abundance,concentration: 4mM,1.01 ± 0.064
same,NP40-soluble protein abundance,concentration: 6mM,1 ± 0.049
same,NP40-soluble protein abundance,concentration: 8mM,0.985 ± 0.015
same,NP40-soluble protein abundance,concentration: 10mM,1.03 ± 0.033
A0A0B4J2C3|P13693 and related entries (UniProt P13693),NP40-soluble protein abundance,concentration: 1mM,0.964 ± 0.026
same,NP40-soluble protein abundance,concentration: 2mM,1 ± 0.016
same,NP40-soluble protein abundance,concentration: 4mM,0.956 ± 0.029
same,NP40-soluble protein abundance,concentration: 6mM,0.9833 ± 0.0083
same,NP40-soluble protein abundance,concentration: 8mM,0.958 ± 0.027
same,NP40-soluble protein abundance,concentration: 10mM,0.962 ± 0.035
A0A0A0MS41|Q9BWM7 (UniProt Q9BWM7),NP40-soluble protein abundance,concentration: 1mM,1.01 ± 0.017
same,NP40-soluble protein abundance,concentration: 2mM,0.957 ± 0.051
same,NP40-soluble protein abundance,concentration: 4mM,0.9957 ± 0.0075
same,NP40-soluble protein abundance,concentration: 6mM,0.9947 ± 0.009
same,NP40-soluble protein abundance,concentration: 8mM,0.994 ± 0.017
same,NP40-soluble protein abundance,concentration: 10mM,1.007 ± 0.0074
A0A0A0MQS0|A8MW92 and related entries (UniProt A8MW92),NP40-soluble protein abundance,concentration: 1mM,0.995 ± 0.044
same,NP40-soluble protein abundance,concentration: 2mM,1.11 ± 0.088
same,NP40-soluble protein abundance,concentration: 4mM,1.1 ± 0.041
same,NP40-soluble protein abundance,concentration: 6mM,1.15 ± 0.036
same,NP40-soluble protein abundance,concentration: 8mM,1.17 ± 0.081
same,NP40-soluble protein abundance,concentration: 10mM,1.26 ± 0.019
A0A087X0V4|A8K0B5 and related entries (UniProt Q8IWT0),NP40-soluble protein abundance,concentration: 1mM,0.987 ± 0.031
same,NP40-soluble protein abundance,concentration: 2mM,0.983 ± 0.043
same,NP40-soluble protein abundance,concentration: 4mM,0.942 ± 0.06
same,NP40-soluble protein abundance,concentration: 6mM,0.915 ± 0.047
same,NP40-soluble protein abundance,concentration: 8mM,0.927 ± 0.093
same,NP40-soluble protein abundance,concentration: 10mM,0.896 ± 0.027
A0A0U1RR27|Q7Z401 and related entries (UniProt Q7Z401),NP40-soluble protein abundance,concentration: 1mM,1.016 ± 0.01
same,NP40-soluble protein abundance,concentration: 2mM,1.09 ± 0.019
same,NP40-soluble protein abundance,concentration: 4mM,0.978 ± 0.044
same,NP40-soluble protein abundance,concentration: 6mM,0.994 ± 0.017
same,NP40-soluble protein abundance,concentration: 8mM,0.952 ± 0.02
same,NP40-soluble protein abundance,concentration: 10mM,0.96 ± 0.011
A0A0J9YWL0|Q9Y4K1 (UniProt Q9Y4K1),NP40-soluble protein abundance,concentration: 1mM,1.03 ± 0.019
same,NP40-soluble protein abundance,concentration: 2mM,1.03 ± 0.011
same,NP40-soluble protein abundance,concentration: 4mM,1.02 ± 0.026
same,NP40-soluble protein abundance,concentration: 6mM,0.9883 ± 0.0081
same,NP40-soluble protein abundance,concentration: 8mM,0.9876 ± 0.007
same,NP40-soluble protein abundance,concentration: 10mM,0.995 ± 0.012

# Five records picked at random from those above:
target,measurement,setting,value
A0A0A0MS41|Q9BWM7 (UniProt Q9BWM7),NP40-soluble protein abundance,concentration: 4mM,0.9957 ± 0.0075
A0A087X211|Q8TCG1 and related entries (UniProt Q8TCG1),NP40-soluble protein abundance,concentration: 4mM,0.97 ± 0.029
A0A0A6YYC8|I3L1I5 (UniProt I3L1I5),NP40-soluble protein abundance,concentration: 4mM,1.02 ± 0.012
A0A087WXD1|Q96T83 (UniProt Q96T83),NP40-soluble protein abundance,concentration: 6mM,0.948 ± 0.038
A0A0A6YYC8|I3L1I5 (UniProt I3L1I5),NP40-soluble protein abundance,concentration: 6mM,1.01 ± 0.023
